Reference: the supplement of paper PMC3334620
In all, about 33,000 sequences were measured (“E-score (-0.5 to 0.5)”: median about -0.016, highest 2% from about 0.3 on). This is one part of the list.

target: T1, Yer184c (UniProt P39961); assay: PBM E-score (8-mer binding enrichment) (E-score (-0.5 to 0.5)); higher = stronger / more preferred TF binding; conditions: protein concentration: 100 nM; construct: GST-full length
T1 sequence: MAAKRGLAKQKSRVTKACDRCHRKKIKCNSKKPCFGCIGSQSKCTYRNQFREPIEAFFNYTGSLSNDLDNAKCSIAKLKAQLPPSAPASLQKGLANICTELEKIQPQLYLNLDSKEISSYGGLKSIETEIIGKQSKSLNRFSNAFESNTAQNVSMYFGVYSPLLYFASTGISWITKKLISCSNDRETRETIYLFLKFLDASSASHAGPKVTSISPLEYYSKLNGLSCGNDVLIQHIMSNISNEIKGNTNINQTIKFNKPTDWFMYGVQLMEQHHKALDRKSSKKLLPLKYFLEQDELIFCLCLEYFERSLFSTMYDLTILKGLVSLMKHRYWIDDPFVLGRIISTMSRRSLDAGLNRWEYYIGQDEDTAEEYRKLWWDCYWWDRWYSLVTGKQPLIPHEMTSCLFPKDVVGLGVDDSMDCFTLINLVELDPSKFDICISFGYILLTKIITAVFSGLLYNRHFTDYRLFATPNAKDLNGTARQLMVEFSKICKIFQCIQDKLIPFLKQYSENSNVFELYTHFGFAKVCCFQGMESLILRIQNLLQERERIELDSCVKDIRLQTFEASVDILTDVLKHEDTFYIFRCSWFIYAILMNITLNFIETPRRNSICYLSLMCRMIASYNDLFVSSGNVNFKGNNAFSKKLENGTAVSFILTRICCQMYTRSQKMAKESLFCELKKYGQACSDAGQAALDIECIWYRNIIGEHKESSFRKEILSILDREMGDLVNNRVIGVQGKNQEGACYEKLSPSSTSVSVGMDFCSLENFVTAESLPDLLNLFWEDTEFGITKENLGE
Procedure: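 Universal 'all 10-mer' protein binding microarrays (Agilent AMADID 015681) probed with GST-tagged S. cerevisiae TFs (full-length or DBD) made by in vitro transcription/translation (PURExpress), about 100-200 nM. Bound TF was detected with fluorescent anti-GST. Each ungapped 8-mer (which stands for itself and its reverse complement) is scored by the PBM enrichment score (E-score), a modified Wilcoxon-Mann-Whitney statistic from -0.5 to +0.5, computed with the Universal PBM Analysis Suite. Scale: above 0.35 generally sequence-specific binding.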

First: AGTCGACC
Second: ACGCTCGA
The “PBM E-score” value of the first is higher: -0.0151 for the first, -0.0816 for the second.

Compared with AGTTGTAG, GCTGCGCA is lower in “PBM E-score” value: 0.0893 for the first, -0.096 for the second.

First: ACAAGGGA
Second: GCTAAGTA
The “PBM E-score” value of the first is lower: -0.0864 for the first, 0.108 for the second.

Compared with CCTTTGCA, AGCTGACA is higher in “PBM E-score” value: -0.109 for the first, 0.0472 for the second.

Going from AGCGGCCT to CCGTATTC, the “PBM E-score” value rises from -0.179 to 0.141.

Compared with ACCGCACA, ACCTATTC is higher in “PBM E-score” value: -0.307 for the first, -0.181 for the second.

First: AAAGGCTA
Second: GATTCTAA
The “PBM E-score” value of the first is lower: -0.211 for the first, 0.0814 for the second.

First: AAATCGGA
Second: GTCATTGA
The “PBM E-score” value of the first is higher: 0.308 for the first, -0.0947 for the second.

Going from AAGTCCGG to AGTAAGAG, the “PBM E-score” value falls from 0.295 to -0.102.

Going from CACACCGC to AACATAGG, the “PBM E-score” value falls from -0.0491 to -0.115.

Compared with TAAACTGA, GCGTCACA is lower in “PBM E-score” value: 0.101 for the first, -0.162 for the second.

First: ACGTCGGC
Second: CCTCCAAA
The “PBM E-score” value of the first is higher: 0.1 for the first, -0.112 for the second.

Going from ATATTCAG to CCCACCAG, the “PBM E-score” value falls from 0.111 to -0.265.

First: ATGAGTCA
Second: GTCAGCGA
The “PBM E-score” value of the first is higher: -0.203 for the first, -0.262 for the second.

Compared with AATCAGGG, ACGGGACG is higher in “PBM E-score” value: -0.259 for the first, -0.0892 for the second.

Compared with GCACCCCA, ATGAATTG is higher in “PBM E-score” value: -0.33 for the first, 0.0349 for the second.

First: AGGTCTAA
Second: ACATGCCC
The “PBM E-score” value of the first is higher: 0.00634 for the first, -0.114 for the second.

First: CCCGTAGA
Second: ACCACGGT
The “PBM E-score” value of the first is lower: -0.211 for the first, -0.112 for the second.

Compared with ACAATCGC, CAAGTCCG is higher in “PBM E-score” value: 0.0673 for the first, 0.119 for the second.

Compared with AAATATGT, AAAATACT is lower in “PBM E-score” value: 0.304 for the first, 0.145 for the second.

First: AGCTAACA
Second: AGGCCAAT
The “PBM E-score” value of the first is higher: -0.0928 for the first, -0.138 for the second.

Going from CCGTTAGG to CAATAGAC, the “PBM E-score” value falls from 0.0597 to -0.00121.

Going from GAGAGGGA to ATCCCTAC, the “PBM E-score” value rises from -0.23 to 0.0439.

Compared with ACATCCCA, AACTAAGG is higher in “PBM E-score” value: -0.0973 for the first, 0.048 for the second.

First: AAGGCGTG
Second: GGCTTTGA
The “PBM E-score” value of the first is lower: -0.149 for the first, 0.162 for the second.

Going from CGACCCTC to GACGCCCA, the “PBM E-score” value falls from -0.0951 to -0.164.

Going from AGGCGAAC to GAGAAGCA, the “PBM E-score” value falls from -0.0698 to -0.122.

Compared with CTAATAAA, TGTGAACA is lower in “PBM E-score” value: 0.0623 for the first, 0.0218 for the second.

Compared with CACCTTAA, GTGTTGGA is higher in “PBM E-score” value: -0.145 for the first, -0.109 for the second.

Going from CGGGTCAA to GTCGACAC, the “PBM E-score” value falls from 0.239 to 0.105.

First: CATCGTAC
Second: TACGTAAA
The “PBM E-score” value of the first is lower: -0.109 for the first, -0.0476 for the second.

Compared with AATTATGG, CCAGCCCC is lower in “PBM E-score” value: 0.108 for the first, -0.228 for the second.

First: TGGTCAAA
Second: AAACTTAT
The “PBM E-score” value of the first is lower: 0.2 for the first, 0.236 for the second.

Compared with AGGCAAGA, TGGGTCAA is lower in “PBM E-score” value: -0.112 for the first, -0.147 for the second.

Compared with CGACGACG, CATCCGCA is higher in “PBM E-score” value: -0.0826 for the first, 0.108 for the second.

Going from CTTTATTA to CGAAAATA, the “PBM E-score” value rises from 0.0076 to 0.274.

Compared with GAGAGTTA, ATCTCTTC is higher in “PBM E-score” value: -0.0682 for the first, 0.0858 for the second.

Compared with ACTCGCGC, CCATTACC is lower in “PBM E-score” value: 0.115 for the first, -0.0702 for the second.

Going from AGATCAGC to CGCGACGA, the “PBM E-score” value falls from 0.13 to 0.0584.

First: CAAGCTAG
Second: CAAACACA
The “PBM E-score” value of the first is lower: -0.16 for the first, 0.189 for the second.

First: AGGTCGCC
Second: AGAGTAGA
The “PBM E-score” value of the first is lower: -0.107 for the first, 0.109 for the second.

Going from CACGTTCC to ACCGGTTC, the “PBM E-score” value rises from -0.176 to 0.0994.

Compared with CATCTAGC, ATGAAGCG is lower in “PBM E-score” value: -0.092 for the first, -0.273 for the second.

Going from CCAATGGG to AGACCTTA, the “PBM E-score” value rises from -0.308 to -0.0358.

Going from TATAATAA to AGATTACG, the “PBM E-score” value falls from 0.324 to 0.0921.

Compared with TTTCCAAA, CACGGCCG is higher in “PBM E-score” value: 0.138 for the first, 0.272 for the second.

Going from GATTTTGA to AATTTATG, the “PBM E-score” value rises from 0.268 to 0.307.

Compared with AGGACGAC, CATACGCA is higher in “PBM E-score” value: -0.234 for the first, 0.0352 for the second.

First: GTTGATGA
Second: TATATAAA
The “PBM E-score” value of the first is lower: 0.0524 for the first, 0.289 for the second.

Going from ACCTCACC to CATTCTCA, the “PBM E-score” value rises from -0.175 to 0.133.

Going from ACTCATGA to CACACAGG, the “PBM E-score” value falls from -0.0549 to -0.175.

Compared with GTGTGTGA, ATGGCAAC is higher in “PBM E-score” value: -0.0295 for the first, 0.118 for the second.

Going from GAATGGTA to AAATCGTA, the “PBM E-score” value falls from -0.0523 to -0.0583.

Going from GTTCTTCA to ACCAGTTA, the “PBM E-score” value falls from 0.133 to -0.0744.

Going from CGCTGTCA to AATCCTCG, the “PBM E-score” value rises from -0.195 to -0.0543.

Compared with CCGTTTAA, AGTGTCTC is lower in “PBM E-score” value: 0.129 for the first, -0.0921 for the second.

Compared with GATGTTGC, ACAGACTC is lower in “PBM E-score” value: 0.11 for the first, -0.121 for the second.

Going from GCTGCCAA to ATATGGCA, the “PBM E-score” value falls from -0.0171 to -0.15.

First: CACCCACG
Second: CAGGGTCG
The “PBM E-score” value of the first is higher: -0.0259 for the first, -0.179 for the second.

Going from CTCTTTTA to AAAGATCC, the “PBM E-score” value rises from -0.15 to -0.0421.

Going from AGGTTCCG to TGCACAAA, the “PBM E-score” value falls from 0.285 to 0.0946.

First: AGCCATAC
Second: CCCGGATC
The “PBM E-score” value of the first is lower: -0.199 for the first, 0.318 for the second.

Going from CACTGCAC to AGTTCTTG, the “PBM E-score” value rises from -0.158 to 0.193.

First: AAGATCGT
Second: ATGGTAAA
The “PBM E-score” value of the first is lower: -0.163 for the first, 0.0619 for the second.

Compared with CGGAATAA, CTTTTTAC is lower in “PBM E-score” value: 0.25 for the first, 0.163 for the second.

Going from CGGTCTAG to GGAGGGCA, the “PBM E-score” value falls from -0.0149 to -0.192.

Going from AAAATACG to CAATTTCA, the “PBM E-score” value falls from 0.142 to -0.0518.

Compared with CAGTACTG, ATGGATGC is lower in “PBM E-score” value: 0.0131 for the first, -0.164 for the second.

First: ATTAACCG
Second: GACTCTAC
The “PBM E-score” value of the first is higher: 0.335 for the first, -0.215 for the second.

Compared with TACTGGAA, AAGGGGGG is lower in “PBM E-score” value: 0.0649 for the first, -0.374 for the second.

Going from ACTAGGGC to CGCCGCCG, the “PBM E-score” value rises from -0.235 to 0.196.

Going from ATCCAAAG to CACAGCGC, the “PBM E-score” value falls from 0.0702 to -0.0127.

Compared with GTCCTAAC, CAATCGTA is higher in “PBM E-score” value: -0.0183 for the first, 0.0527 for the second.

Compared with ACGTGCAT, CTAGCACA is lower in “PBM E-score” value: -0.154 for the first, -0.195 for the second.

First: ACTTCCCC
Second: TTCGACAA
The “PBM E-score” value of the first is lower: -0.247 for the first, 0.0961 for the second.

First: CGAGTAAC
Second: CCCCAACG
The “PBM E-score” value of the first is higher: 0.131 for the first, -0.0186 for the second.

Compared with GGACCCTA, GCTGCGGA is higher in “PBM E-score” value: -0.187 for the first, 0.038 for the second.

Going from GTGTATCA to CAGCACAC, the “PBM E-score” value falls from 0.123 to -0.282.

First: ACAACAAG
Second: AAGTTAGG
The “PBM E-score” value of the first is lower: -0.0802 for the first, 0.00351 for the second.

Going from AGTGTCAG to ACTCCATC, the “PBM E-score” value rises from -0.114 to 0.196.

First: ACTCGTCA
Second: CTTAGGGA
The “PBM E-score” value of the first is higher: -0.144 for the first, -0.156 for the second.

Compared with CAGTAACC, GGTTATCA is lower in “PBM E-score” value: 0.0669 for the first, -0.0425 for the second.

Going from CTTCTGGC to AACTTTGT, the “PBM E-score” value rises from -0.0939 to 0.0071.

First: ATTCCCCA
Second: CACGGGCA
The “PBM E-score” value of the first is lower: -0.238 for the first, -0.163 for the second.

Going from GTGGTGAA to TGCAACCA, the “PBM E-score” value falls from -0.0601 to -0.101.

Going from CCTGGACA to CCTAGTAC, the “PBM E-score” value rises from -0.164 to -0.085.
